Some results were stated once for a whole list of compounds, not compound by compound. At least one compound was matched to its structure with a doubt left.
Target: T1, human beta-2 receptor (Homo sapiens, UniProt P07550)
T1 construct: expressed in transfected cells; host or cells: Chinese hamster ovary (CHO) cells, whole cells or membranes derived from them
Experiment: potency at the human beta-2 receptor, cAMP measurement in CHO cells or membranes
Format: cell-based
Settings: Chinese hamster ovary cells co-expressing the human receptor with a reporter gene, whole cells or membranes

Protein sequences, listed by entry. Tags and fused reporters are not part of them.
UniProt P07550, whole entry: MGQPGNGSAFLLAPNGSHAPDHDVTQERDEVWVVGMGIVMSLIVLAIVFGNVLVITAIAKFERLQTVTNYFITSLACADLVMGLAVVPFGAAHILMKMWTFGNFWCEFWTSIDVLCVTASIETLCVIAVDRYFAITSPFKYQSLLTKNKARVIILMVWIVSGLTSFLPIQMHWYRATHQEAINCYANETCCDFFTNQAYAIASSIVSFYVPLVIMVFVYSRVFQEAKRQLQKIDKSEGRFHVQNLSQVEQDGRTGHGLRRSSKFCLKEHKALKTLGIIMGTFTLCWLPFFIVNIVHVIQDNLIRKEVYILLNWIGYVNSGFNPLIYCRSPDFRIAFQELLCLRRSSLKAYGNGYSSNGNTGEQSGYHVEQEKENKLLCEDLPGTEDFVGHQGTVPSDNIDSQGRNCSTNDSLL

Structure (SMILES)	pEC50 at the human beta-2 receptor
CC(=O)O.O=S1(=O)CCc2ccc(CCCCOCCCCCCNC[C@H](O)c3ccc(O)c(CO)c3)cc21 [Example 1, 4-[(1R)-2-({6-[4-(1,1-Dioxido-2,3-dihydro-1-benzothien-6-yl)butoxy]hexyl}amino)-1-hydroxyethyl]-2-(hydroxymethyl)phenol acetate]	> 6
O=CO.O=S1(=O)CCCc2ccc(CCCCOCCCCCCNCC(O)c3ccc(O)c(CO)c3)cc21 [Example 2, 4-[(1R)-2-({6-[4-(1,1-Dioxido-3,4-dihydro-2H-thiochromen-7-yl)butoxy]hexyl}amino)-1-hydroxyethyl]-2-(hydroxymethyl)phenol formate]	> 6

— patent US7294650B2, “Benzothiophen and thiochrone containing phenethanolamine derivatives for the treatment of respiratory disorders” (Glaxo Group Limited, priority 2003, dated 2007)
